Experimental data from paper doi:10.1101/2021.02.07.430161 (bioRxiv, 2021).
These are yes or no findings as the source states them, for the method shown. Binding seen in cells or lysates may run through a third protein. Some entries that bind do so weakly or less than the wild type. Sequences can lack the tags named with a protein.

Protein sequences, listed by entry. Tags and fused reporters are not part of them.
UniProt P11940: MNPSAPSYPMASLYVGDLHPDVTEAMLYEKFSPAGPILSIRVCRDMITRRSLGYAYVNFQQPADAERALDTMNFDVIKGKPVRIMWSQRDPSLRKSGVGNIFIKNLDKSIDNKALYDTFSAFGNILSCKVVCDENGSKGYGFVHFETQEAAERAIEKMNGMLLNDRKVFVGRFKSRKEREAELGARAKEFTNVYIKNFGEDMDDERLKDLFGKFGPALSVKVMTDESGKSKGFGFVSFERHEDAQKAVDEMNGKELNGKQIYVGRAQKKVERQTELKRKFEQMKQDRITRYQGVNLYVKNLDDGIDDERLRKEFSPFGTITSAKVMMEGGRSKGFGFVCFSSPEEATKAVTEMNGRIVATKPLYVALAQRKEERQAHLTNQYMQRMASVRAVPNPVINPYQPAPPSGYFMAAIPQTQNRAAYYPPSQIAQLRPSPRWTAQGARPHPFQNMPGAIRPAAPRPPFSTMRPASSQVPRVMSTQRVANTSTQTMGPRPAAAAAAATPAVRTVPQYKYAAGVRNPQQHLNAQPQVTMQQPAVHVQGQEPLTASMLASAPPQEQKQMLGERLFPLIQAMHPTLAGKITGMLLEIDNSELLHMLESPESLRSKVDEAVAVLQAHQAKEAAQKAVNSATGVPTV

Target: endogenous PABPC1 (HeLa cells) (human (endogenous in HeLa)) (UniProt P11940)
Assay: co-IP

Q: How did the binding turn out when SNLNPNAPEFHPGVPWKGLQNI [GST-super-PAM2] was run?
A: binds
